Numbering of substitutions follows the chain as printed. Results are given in words; binding and its absence hold for the method and conditions named. Binding seen in cells or lysates may run through a third protein. A yes stands for co-enrichment or nearness to the bait. Other partners may have been found. For part of these data: A no says only that the protein was not detected with the bait. Where a sequence is shown, tags or fusion partners need not be part of it.
What was measured:
Test in all cases: affinity purification with mass spectrometry; anti-FLAG agarose IP of FLAG-KLHL3 from 5 mg HEK-293 lysate; washed 3x with lysis buffer containing 0.5 M NaCl and 2x with Buffer A; SDS-PAGE, Colloidal Blue staining, bands analysed by LC-MS/MS (Orbitrap, Mascot)
[1] = target: T1, FLAG-tagged KLHL3[R528H] (human) (UniProt Q9UH77)
T1 sequence: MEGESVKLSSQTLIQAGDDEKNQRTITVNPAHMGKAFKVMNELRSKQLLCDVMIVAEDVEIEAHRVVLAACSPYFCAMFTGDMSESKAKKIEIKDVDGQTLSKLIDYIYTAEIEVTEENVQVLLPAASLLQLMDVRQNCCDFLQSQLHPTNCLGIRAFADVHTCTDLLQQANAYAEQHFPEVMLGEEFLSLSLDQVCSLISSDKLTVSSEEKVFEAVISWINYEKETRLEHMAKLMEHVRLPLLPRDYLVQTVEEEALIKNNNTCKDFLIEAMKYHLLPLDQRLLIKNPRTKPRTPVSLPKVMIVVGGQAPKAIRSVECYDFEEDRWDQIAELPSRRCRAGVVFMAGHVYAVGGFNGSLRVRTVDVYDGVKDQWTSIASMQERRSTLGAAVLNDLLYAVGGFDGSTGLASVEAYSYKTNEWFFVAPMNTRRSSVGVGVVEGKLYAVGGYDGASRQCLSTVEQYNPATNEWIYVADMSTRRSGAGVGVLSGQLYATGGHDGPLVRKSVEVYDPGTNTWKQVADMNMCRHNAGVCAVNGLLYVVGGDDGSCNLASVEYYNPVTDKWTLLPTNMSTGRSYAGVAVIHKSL

Amino acid sequences for entries named in this document (tags omitted).
UniProt Q9Y3S1: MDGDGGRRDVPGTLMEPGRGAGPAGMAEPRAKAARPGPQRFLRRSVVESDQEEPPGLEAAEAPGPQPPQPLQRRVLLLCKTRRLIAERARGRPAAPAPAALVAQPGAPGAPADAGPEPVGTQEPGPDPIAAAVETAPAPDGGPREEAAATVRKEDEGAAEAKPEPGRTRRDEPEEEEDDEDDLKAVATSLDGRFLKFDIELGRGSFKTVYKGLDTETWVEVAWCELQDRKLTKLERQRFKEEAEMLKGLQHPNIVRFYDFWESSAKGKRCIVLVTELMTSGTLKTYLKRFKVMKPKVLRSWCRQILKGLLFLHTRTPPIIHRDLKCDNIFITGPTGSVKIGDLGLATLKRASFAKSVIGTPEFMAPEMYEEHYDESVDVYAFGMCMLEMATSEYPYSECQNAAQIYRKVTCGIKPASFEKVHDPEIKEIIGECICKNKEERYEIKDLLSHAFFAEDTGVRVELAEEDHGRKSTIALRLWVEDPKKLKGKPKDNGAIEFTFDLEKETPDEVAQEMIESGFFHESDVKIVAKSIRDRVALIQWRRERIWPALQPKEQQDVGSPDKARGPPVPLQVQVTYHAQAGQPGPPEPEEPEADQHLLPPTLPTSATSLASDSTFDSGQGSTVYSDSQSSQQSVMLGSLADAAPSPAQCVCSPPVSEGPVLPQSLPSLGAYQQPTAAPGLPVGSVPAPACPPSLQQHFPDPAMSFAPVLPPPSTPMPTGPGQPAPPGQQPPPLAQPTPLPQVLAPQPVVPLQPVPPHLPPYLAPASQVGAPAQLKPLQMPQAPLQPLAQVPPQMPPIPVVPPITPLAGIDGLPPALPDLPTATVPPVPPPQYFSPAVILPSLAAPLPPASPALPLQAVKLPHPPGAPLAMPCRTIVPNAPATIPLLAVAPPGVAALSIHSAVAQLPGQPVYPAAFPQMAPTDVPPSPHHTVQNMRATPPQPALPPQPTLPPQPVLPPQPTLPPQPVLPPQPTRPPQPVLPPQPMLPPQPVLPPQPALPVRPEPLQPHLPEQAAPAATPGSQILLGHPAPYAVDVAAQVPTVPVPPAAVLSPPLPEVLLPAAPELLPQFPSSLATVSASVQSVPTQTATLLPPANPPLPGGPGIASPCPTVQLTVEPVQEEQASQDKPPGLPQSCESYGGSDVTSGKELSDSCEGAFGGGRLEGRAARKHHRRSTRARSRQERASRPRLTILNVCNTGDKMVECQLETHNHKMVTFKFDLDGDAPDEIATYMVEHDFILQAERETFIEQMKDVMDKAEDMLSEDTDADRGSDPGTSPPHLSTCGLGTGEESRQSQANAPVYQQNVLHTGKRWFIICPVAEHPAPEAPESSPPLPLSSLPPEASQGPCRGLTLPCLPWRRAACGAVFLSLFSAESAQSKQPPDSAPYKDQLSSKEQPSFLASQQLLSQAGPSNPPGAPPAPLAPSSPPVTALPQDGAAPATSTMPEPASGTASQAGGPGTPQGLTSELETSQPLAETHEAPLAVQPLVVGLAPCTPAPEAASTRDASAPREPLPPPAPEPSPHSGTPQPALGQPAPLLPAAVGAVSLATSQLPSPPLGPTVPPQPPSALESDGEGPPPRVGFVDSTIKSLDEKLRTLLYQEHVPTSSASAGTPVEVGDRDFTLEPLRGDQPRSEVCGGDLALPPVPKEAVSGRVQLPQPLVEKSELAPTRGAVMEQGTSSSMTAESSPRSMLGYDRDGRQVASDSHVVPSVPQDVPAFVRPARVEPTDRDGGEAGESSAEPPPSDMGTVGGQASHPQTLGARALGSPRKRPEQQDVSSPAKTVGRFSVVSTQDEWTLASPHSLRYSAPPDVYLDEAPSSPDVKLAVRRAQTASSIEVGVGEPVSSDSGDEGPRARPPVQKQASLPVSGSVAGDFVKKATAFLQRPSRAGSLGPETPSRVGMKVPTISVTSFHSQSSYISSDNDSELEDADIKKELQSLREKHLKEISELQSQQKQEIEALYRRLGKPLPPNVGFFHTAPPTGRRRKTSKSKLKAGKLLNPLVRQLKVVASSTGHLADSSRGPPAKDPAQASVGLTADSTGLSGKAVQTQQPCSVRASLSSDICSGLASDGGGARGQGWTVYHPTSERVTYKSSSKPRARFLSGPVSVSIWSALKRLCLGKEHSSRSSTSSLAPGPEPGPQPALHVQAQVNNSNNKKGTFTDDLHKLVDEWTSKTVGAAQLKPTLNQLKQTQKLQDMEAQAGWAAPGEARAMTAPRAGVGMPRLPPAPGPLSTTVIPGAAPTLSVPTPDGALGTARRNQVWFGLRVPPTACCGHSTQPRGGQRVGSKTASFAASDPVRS
UniProt Q9BYP7: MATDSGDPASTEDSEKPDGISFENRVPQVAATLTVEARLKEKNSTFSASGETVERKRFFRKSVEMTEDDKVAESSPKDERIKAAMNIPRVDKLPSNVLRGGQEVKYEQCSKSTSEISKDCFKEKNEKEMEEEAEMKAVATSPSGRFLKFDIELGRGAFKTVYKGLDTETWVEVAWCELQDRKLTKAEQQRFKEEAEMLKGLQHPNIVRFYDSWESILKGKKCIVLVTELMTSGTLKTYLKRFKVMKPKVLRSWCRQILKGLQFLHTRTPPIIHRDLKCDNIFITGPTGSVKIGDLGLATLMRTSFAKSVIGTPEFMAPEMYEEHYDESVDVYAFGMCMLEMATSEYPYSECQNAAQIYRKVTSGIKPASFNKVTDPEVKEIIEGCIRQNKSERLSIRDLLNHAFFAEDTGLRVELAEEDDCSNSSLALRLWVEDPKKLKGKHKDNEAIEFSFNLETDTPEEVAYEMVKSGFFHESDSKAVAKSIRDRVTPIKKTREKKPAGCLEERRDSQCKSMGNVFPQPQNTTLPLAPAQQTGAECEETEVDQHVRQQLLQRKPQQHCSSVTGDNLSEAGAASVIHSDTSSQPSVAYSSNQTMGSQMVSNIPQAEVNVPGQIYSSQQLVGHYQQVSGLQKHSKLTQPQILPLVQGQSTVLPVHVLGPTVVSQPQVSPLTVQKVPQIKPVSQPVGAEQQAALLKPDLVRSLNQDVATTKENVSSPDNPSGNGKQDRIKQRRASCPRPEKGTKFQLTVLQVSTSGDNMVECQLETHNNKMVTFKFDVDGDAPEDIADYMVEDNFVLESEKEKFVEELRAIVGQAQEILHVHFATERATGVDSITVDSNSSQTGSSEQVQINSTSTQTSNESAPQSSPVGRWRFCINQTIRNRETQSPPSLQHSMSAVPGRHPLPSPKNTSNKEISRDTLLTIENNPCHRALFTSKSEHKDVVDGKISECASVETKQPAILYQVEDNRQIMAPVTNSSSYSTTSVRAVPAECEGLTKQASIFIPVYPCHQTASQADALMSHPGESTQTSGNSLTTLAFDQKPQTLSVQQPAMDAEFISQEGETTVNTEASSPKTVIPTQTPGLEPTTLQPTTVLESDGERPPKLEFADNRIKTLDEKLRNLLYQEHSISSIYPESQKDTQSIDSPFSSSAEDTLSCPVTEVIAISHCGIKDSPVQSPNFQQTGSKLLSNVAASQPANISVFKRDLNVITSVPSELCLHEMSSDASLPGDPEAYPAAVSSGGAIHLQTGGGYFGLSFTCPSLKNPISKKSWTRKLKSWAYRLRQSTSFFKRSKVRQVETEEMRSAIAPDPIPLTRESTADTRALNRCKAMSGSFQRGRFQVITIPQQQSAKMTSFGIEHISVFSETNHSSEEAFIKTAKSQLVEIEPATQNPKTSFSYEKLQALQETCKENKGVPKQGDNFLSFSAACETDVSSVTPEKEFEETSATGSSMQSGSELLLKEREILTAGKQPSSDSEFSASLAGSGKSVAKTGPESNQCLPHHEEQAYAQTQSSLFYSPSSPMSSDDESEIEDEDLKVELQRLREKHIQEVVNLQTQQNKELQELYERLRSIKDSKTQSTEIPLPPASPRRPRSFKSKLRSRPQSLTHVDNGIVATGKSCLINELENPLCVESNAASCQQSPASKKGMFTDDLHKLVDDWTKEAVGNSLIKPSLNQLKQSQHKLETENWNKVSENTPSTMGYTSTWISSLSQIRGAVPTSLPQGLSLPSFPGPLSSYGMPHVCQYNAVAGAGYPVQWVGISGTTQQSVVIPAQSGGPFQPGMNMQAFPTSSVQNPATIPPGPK
UniProt Q9H4A3: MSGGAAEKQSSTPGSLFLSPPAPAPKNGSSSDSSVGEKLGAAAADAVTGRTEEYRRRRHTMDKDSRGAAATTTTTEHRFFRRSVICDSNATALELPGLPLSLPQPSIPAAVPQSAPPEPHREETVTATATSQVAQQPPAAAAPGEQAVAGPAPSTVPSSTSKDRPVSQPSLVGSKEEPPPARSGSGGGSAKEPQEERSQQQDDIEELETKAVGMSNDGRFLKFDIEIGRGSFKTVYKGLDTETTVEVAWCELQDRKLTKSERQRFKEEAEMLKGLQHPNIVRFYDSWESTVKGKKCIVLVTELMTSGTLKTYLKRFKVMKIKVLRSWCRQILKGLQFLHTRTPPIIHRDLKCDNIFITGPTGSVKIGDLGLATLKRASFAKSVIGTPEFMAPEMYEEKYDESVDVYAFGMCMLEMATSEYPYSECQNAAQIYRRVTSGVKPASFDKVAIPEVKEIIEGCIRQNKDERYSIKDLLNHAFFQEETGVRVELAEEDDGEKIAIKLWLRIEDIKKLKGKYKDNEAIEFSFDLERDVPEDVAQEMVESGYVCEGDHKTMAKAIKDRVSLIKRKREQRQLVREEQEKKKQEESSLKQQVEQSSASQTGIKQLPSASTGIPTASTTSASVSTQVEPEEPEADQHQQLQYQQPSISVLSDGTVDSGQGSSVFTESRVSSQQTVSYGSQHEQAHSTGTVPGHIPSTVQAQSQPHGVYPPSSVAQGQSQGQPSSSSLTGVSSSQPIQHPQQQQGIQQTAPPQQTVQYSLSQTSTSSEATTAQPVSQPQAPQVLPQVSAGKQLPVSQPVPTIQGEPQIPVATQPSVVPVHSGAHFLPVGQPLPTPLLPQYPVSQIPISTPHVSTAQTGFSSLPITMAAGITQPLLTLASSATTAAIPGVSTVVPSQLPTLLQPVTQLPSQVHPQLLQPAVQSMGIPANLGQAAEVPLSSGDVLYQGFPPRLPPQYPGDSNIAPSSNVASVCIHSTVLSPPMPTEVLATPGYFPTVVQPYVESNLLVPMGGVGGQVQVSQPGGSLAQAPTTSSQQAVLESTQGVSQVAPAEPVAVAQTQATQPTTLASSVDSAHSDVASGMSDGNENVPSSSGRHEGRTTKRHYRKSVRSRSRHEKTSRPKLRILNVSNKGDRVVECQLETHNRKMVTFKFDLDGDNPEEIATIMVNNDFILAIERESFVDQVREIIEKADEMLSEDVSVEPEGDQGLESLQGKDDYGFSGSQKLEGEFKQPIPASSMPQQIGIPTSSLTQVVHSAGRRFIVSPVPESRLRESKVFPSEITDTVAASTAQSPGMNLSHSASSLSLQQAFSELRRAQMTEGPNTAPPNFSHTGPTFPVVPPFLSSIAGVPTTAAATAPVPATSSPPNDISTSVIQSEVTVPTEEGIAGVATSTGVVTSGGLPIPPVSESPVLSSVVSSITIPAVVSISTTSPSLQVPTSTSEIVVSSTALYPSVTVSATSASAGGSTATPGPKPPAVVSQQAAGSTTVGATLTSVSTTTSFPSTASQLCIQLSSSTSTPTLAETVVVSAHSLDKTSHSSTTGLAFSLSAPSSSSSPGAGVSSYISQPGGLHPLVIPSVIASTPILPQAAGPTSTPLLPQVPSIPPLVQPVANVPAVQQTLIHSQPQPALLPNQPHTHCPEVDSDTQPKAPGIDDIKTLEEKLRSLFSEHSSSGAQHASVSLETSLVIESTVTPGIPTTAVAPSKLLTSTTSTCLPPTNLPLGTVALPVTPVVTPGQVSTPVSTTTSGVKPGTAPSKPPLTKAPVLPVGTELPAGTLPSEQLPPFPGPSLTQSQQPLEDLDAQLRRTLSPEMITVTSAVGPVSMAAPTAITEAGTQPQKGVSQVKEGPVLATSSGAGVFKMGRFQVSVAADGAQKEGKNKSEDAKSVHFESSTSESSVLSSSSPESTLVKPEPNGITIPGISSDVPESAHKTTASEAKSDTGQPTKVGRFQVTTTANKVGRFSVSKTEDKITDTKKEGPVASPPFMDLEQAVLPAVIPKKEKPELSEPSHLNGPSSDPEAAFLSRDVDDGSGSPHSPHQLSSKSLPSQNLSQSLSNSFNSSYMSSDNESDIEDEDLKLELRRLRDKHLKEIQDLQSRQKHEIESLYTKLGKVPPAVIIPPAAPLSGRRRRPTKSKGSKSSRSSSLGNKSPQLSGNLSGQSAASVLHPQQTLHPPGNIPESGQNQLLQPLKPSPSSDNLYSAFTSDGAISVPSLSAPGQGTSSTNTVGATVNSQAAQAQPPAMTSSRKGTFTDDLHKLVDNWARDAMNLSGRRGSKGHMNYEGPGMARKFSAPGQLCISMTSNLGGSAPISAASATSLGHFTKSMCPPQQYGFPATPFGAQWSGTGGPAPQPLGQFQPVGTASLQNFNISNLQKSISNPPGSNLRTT

[2] = target: T2, FLAG-tagged wild-type KLHL3 (Kelch-like 3) (human) (UniProt Q9UH77)
T2 sequence: T1 sequence with H528R

[3] = target: T3, FLAG-tagged KLHL3[S432N] (human) (UniProt Q9UH77)
T3 sequence: T1 sequence with S432N, H528R

Substance	binding [1]	binding [2]	binding [3]
WNK2, endogenous (from UniProt Q9Y3S1 1-2297)	no binding	binds	no binding
WNK3, endogenous (from UniProt Q9BYP7 1-1800)	no binding	binds	no binding
WNK1 (with no lysine kinase 1), endogenous (from UniProt Q9H4A3 1-2382)	binds	binds	no binding

From paper PMC3632089
